# Where a sequence shows no end group, the ends are not given.
# Assay: peptide synthesis
# Details: whole synthesis, 220 nm
row,Sequence,final HPLC purity [%]
1,SSSQQWQR (Ahx linker; listed as Mus musculus),98.6
2,SPSQSWQR,98.54
3,LSSSQQWQ,98.1
4,SPSQPWAR,98.53
5,SASQPWQR,97
6,QPWQRGGGGSQPWQR,91.6
7,QWQRPLLR,98.9
8,STSQPWQR,97.25
9,SPSQAWQR,98.13
10,QPWQRSQPWQR,91.61
11,SPSQTWQR,97.86
12,SPSQPWQR (Ahx linker; listed as Homo sapiens),98.2
13,SPSQQWQR,99.04
14,PWQRPWQR,97.55
15,SKSQPWQR,96.12
16,KPSQPWQR,96.15
17,KKSQPWQR,96.6

row,Sequence,final HPLC purity [%]
1,SPSQPAQR,97.97
2,STSQTWQR,98.89
3,STSQSWQR,98.09
4,SQQWQRPL,97.7
5,SPAQPWQR,98.45
6,SPSAPWQR,96.32
7,SSSQTWQR,98
8,STSQQWQR,97.84
9,PSQPWQRK,95.8
10,SSQQWQRP,99.1
11,SPSQPWQA,98.17
12,APSQPWQR,98.74
13,SSSQSWQR,98.62
14,QWQRPWQR,98.37
15,SSSQPWQR,98.83
16,SPKQPWQR,96.12

# Source: patent publication US20250057928A1 (OSAKA UNIVERSITY, priority 2021, published 2025)
